Assay results reported in PMC2266781.
These are yes or no findings as the source states them, for the method shown. In cells and extracts the contact can be indirect. A yes stands for co-enrichment or nearness to the bait. Other partners may have been found.

Chains of the proteins cited; added tags and fusions are not shown.
UniProt P09874: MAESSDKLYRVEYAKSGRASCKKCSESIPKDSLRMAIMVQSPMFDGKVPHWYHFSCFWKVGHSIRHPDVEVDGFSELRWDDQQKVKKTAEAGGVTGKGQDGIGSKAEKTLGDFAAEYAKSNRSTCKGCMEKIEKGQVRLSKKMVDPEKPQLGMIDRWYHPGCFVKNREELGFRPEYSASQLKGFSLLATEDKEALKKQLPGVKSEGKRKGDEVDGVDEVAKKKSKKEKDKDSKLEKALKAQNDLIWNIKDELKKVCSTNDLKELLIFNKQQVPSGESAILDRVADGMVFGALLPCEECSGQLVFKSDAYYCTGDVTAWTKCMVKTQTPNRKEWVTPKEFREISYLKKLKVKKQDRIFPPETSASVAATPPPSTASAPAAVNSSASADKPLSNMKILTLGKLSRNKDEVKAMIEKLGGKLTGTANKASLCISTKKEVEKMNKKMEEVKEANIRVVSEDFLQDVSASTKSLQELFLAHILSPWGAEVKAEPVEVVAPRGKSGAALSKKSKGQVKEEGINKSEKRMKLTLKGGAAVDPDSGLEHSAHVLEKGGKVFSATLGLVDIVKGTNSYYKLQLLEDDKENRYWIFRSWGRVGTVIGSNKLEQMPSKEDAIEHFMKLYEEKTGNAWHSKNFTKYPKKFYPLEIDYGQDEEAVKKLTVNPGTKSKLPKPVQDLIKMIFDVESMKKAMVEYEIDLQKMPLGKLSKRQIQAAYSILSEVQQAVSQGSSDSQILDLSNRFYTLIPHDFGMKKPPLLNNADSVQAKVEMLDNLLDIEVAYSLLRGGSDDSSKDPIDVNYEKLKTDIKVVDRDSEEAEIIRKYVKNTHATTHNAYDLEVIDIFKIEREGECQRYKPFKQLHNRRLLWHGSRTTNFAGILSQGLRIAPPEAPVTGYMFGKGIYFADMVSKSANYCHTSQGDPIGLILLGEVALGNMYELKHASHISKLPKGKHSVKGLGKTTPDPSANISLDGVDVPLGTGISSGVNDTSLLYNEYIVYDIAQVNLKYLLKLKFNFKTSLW
UniProt P40937: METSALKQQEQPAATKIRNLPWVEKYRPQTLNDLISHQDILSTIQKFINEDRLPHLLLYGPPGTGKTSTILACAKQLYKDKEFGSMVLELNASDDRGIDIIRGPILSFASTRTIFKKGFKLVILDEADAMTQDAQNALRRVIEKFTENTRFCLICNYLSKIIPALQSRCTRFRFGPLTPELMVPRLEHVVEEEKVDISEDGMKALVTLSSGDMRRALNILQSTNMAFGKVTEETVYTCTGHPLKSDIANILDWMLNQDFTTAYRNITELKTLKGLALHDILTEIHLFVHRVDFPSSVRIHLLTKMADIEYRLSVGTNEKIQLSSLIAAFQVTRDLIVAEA
UniProt P40938: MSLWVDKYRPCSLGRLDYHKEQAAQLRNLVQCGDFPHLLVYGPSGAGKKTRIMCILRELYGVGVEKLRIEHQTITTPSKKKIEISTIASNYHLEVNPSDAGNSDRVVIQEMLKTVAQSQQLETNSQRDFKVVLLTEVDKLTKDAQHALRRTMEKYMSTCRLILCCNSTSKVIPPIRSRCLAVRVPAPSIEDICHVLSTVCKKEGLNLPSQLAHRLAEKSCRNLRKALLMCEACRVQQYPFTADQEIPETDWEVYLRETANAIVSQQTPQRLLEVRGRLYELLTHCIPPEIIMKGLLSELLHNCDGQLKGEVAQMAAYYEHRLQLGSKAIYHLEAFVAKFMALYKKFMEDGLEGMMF
UniProt P35250: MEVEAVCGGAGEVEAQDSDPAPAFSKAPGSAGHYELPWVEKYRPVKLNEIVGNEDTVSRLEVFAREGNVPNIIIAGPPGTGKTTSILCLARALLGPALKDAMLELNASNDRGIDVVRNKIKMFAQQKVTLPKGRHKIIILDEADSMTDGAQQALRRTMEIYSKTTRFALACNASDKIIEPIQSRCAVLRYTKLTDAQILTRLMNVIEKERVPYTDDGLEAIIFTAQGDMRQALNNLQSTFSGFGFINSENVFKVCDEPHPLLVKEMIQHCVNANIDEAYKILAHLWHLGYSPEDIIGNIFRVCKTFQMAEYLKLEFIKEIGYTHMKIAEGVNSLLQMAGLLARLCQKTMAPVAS
UniProt P35249: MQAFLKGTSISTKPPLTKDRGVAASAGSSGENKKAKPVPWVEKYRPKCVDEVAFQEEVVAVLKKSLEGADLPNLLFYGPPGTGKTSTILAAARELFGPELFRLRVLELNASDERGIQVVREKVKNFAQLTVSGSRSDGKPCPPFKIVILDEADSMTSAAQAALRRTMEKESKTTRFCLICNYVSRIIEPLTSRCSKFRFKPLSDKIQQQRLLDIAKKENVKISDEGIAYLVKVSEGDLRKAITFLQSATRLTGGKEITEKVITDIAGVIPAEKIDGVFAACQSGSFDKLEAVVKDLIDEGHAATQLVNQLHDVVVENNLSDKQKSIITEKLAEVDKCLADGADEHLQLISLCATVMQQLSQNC

These molecules were tested against Poly [ADP-ribose] polymerase 1 (human (endogenous in HeLa)) (UniProt P09874) (assay: affinity purification with mass spectrometry; endogenous PARP-1 immunoprecipitated from HeLa cell lysate with monoclonal antibody F1-23 on protein G magnetic beads (normal mouse IgG as control), 2 hours at 4°C; lysis buffer 175 mM KPO4 pH 8.0, 150 mM NaCl, 1% NP-40, 1 mM DTT; eluate separated by SDS-PAGE, in-gel trypsin digest, LC-MS/MS; 5 independent immunoprecipitations).

Molecule	binding
Activator 1 36 kDa subunit (from UniProt P40937 1-340)	binds
Activator 1 38 kDa subunit (from UniProt P40938 1-356)	binds
Splice Isoform 1 of Activator 1 40 kDa subunit (from UniProt P35250 1-354)	binds

Results, then the molecule that gave them:

binding	Molecule
binds	Activator 1 37 kDa subunit (from UniProt P35249 1-363)
binds	Splice Isoform 1 of Activator 1 140 kDa subunit (protein, UniProt P35251 1-1148) MDIRKFFGVIPSGKKLVSETVKKNEKTKSDEETLKAKKGIKEIKVNSSRKEDDFKQKQPSKKKRIIYDSDSESEETLQVKNAKKPPEKLPVSSKPGKISRQDPVTYISETDEEDDFMCKKAASKSKENGRSTNSHLGTSNMKKNEENTKTKNKPLSPIKLTPTSVLDYFGTGSVQRSNKKMVASKRKELSQNTDESGLNDEAIAKQLQLDEDAELERQLHEDEEFARTLAMLDEEPKTKKARKDTEAGETFSSVQANLSKAEKHKYPHKVKTAQVSDERKSYSPRKQSKYESSKESQQHSKSSADKIGEVSSPKASSKLAIMKRKEESSYKEIEPVASKRKENAIKLKGETKTPKKTKSSPAKKESVSPEDSEKKRTNYQAYRSYLNREGPKALGSKEIPKGAENCLEGLIFVITGVLESIERDEAKSLIERYGGKVTGNVSKKTNYLVMGRDSGQSKSDKAAALGTKIIDEDGLLNLIRTMPGKKSKYEIAVETEMKKESKLERTPQKNVQGKRKISPSKKESESKKSRPTSKRDSLAKTIKKETDVFWKSLDFKEQVAEETSGDSKARNLADDSSENKVENLLWVDKYKPTSLKTIIGQQGDQSCANKLLRWLRNWQKSSSEDKKHAAKFGKFSGKDDGSSFKAALLSGPPGVGKTTTASLVCQELGYSYVELNASDTRSKSSLKAIVAESLNNTSIKGFYSNGAASSVSTKHALIMDEVDGMAGNEDRGGIQELIGLIKHTKIPIICMCNDRNHPKIRSLVHYCFDLRFQRPRVEQIKGAMMSIAFKEGLKIPPPAMNEIILGANQDIRQVLHNLSMWCARSKALTYDQAKADSHRAKKDIKMGPFDVARKVFAAGEETAHMSLVDKSDLFFHDYSIAPLFVQENYIHVKPVAAGGDMKKHLMLLSRAADSICDGDLVDSQIRSKQNWSLLPAQAIYASVLPGELMRGYMTQFPTFPSWLGKHSSTGKHDRIVQDLALHMSLRTYSSKRTVNMDYLSLLRDALVQPLTSQGVDGVQDVVALMDTYYLMKEDFENIMEISSWGGKPSPFSKLDPKVKAAFTRAYNKEAHLTPYSLQAIKASRHSTSPSLDSEYNEELNEDDSQSDEKDQDAIETDAMIKKKTKSSKPSKPEKDKEPRKGKGKSSKK
